This passage reports binding results from article PMC6941992, “Polar recruitment of RLD by LAZY1-like protein during gravity signaling in root branch angle control” (Nature Communications, 2020).

For test [1], the target named is LZY2-GFP (Arabidopsis thaliana). Briefly: affinity purification with mass spectrometry; μMACS anti-GFP microbeads on extracts of two-week-old 35S:LZY2-GFP or 35S:LZY3-GFP seedlings (50 mM Tris-HCl pH 8.0, 150 mM NaCl, 1 mM EDTA, 1% Triton X-100), 2 h at 4 °C; LC-MS/MS; proteins also found with 35S:GFP excluded.
The target of test [2] is LZY3-GFP (Arabidopsis thaliana). The test is described as above.

No constants are given. Whether binding was seen depends on the method and setting. In cells and extracts the contact can be indirect. A yes stands for co-enrichment or nearness to the bait. Other partners may have been found.

B1: RLD1 (RCC1-like domain protein 1) (protein, UniProt Q947D2 1-1103)
chain: MADLVTYSNADHNLEQALITLKKGTQLLKYGRKGKPKFYPFRLSSDEKSLIWISSSGEKRLKLASVSKIVPGQRTAVFQRYLRPEKDYLSFSLLYNGKKKSLDLICKDKVEAEIWIGGLKTLISTGQGGRSKIDGWSGGGLSVDASRELTSSSPSSSSASASRGHSSPGTPFNIDPITSPKSAEPEVPPTDSEKSHVALDNKNMQTKVSGSDGFRVSVSSAQSSSSHGSAADDSDALGDVYIWGEVICDNVVKVGIDKNASYLTTRTDVLVPKPLESNIVLDVHQIACGVRHAAFVTRQGEIFTWGEESGGRLGHGIGKDVFHPRLVESLTATSSVDFVACGEFHTCAVTLAGELYTWGDGTHNVGLLGHGSDISHWIPKRIAGSLEGLHVASVSCGPWHTALITSYGRLFTFGDGTFGVLGHGDKETVQYPREVESLSGLRTIAVSCGVWHTAAVVEIIVTQSNSSSVSSGKLFTWGDGDKNRLGHGDKDPRLKPTCVPALIDYNFHKIACGHSLTVGLTTSGQVFTMGSTVYGQLGNLQTDGKLPCLVEDKLASEFVEEISCGAYHVAALTSRNEVYTWGKGANGRLGHGDLEDRKVPTIVEALKDRHVKYIACGSNYTAAICLHKWVSGAEQSQCSTCRLAFGFTRKRHNCYNCGLVHCHSCSSKKAFRAALAPSAGRLYRVCDSCYVKLSKVSEINDTNRRNSAVPRLSGENRDRLDKSEIRLAKFGTSNMDLIKQLDSKAAKQGKKTDTFSLGRNSQLPSLLQLKDAVQSNIGDMRRATPKLAQAPSGISSRSVSPFSRRSSPPRSATPMPSTSGLYFPVGIADNMKKTNEILNQEIVKLRTQVDSLTQKCEFQEVELQNSVKKTQEALALAEEESAKSRAAKEAIKSLIAQLKDVAEKLPPGESVKLACLQNGLDQNGFHFPEENGFHPSRSESMTSSISSVAPFDFAFANASWSNLQSPKQTPRASERNSNAYPADPRLSSSGSVISERIEPFQFQNNSDNGSSQTGVNNTNQVEAEWIEQYEPGVYITLVALHDGTRDLRRVRFSRRRFGEHQAETWWSENREKVYEKYNVRVSEKSTASQTHRDRDEEEEDIPH
With B1, the binding entry in test [1] and in test [2] was “binds” in each case.
